This is an account of results in US5670621.

Chains of the proteins cited; added tags and fusions are not shown. Chains listed by the source or under a name are the forms on record and can include a tag or linker.
cis-DDP SSRP (cellular structure-specific recognition protein) (Homo sapiens), one chain, as listed by the source: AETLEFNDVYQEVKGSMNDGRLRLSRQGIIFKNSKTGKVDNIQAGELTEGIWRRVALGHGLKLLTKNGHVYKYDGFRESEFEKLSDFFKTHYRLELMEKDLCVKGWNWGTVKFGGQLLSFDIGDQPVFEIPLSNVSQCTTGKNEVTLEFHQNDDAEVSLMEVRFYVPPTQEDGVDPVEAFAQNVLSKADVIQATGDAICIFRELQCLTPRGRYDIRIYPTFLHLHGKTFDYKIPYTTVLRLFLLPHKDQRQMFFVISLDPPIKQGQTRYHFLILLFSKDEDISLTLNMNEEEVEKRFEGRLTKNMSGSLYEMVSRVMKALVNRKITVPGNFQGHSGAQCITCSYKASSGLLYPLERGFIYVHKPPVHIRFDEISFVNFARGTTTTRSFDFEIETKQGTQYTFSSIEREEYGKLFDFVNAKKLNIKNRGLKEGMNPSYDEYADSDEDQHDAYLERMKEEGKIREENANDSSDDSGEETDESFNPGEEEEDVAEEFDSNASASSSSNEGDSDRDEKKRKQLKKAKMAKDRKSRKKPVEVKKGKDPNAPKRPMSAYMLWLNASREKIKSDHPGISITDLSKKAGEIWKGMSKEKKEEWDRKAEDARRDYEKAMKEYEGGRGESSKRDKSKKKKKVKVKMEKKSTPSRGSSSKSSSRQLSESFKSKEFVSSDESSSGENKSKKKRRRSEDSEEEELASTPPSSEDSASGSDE

This data set deals with cis-DDP SSRP (cellular structure-specific recognition protein) (Homo sapiens). The experiment in a line: EMSA. The conditions noted are these: protein in an extract, protein details: HeLa nuclear or cytosolic extract, ca. 91-100 kDa, label: 32P, only the site is given. (In general: A gel shift assay detects complexes by their altered migration in electrophoresis.)

Construct, isoform or probe ends are uncertain for at least one entry. Where cells or extracts were used, other partners may take part. Negatives hold for the conditions tested.

“TCTCCTTCTTAGTTCTCTTCTC (double strand) [110 bp ligated 22-mer, cis 1,2-d(ApG)]”: where the note is “cis-DDP 1,2-intrastrand d(ApG) adduct”, the binding result is “binds”. For “TCTCCTTCTTCGTTCTCTTCTC (double strand) [110 bp ligated 22-mer, monofunctional N7-dG]”, where the note is “Pt(NH3)2(N3-cytosine) monofunctional N7-d(G) adduct”, the binding result is “no binding”. Consider “TCTCCTTCTTGGTTCTCTTCTC (double strand) [44 or 66 bp ligated 22-mer, cis 1,2 adduct]”, for which the binding result (cis-DDP 1,2-intrastrand adduct, 44 and 66 bp too short, variant of 110 bp ligated 22-mer, cis 1,2-d(GpG)) was “no binding”. Take “TCTCCTTCTTGGTTCTCTTCTC (double strand) [110 bp ligated 22-mer, cis 1,2-d(GpG)]”: the binding result (cis-DDP 1,2-intrastrand d(GpG) adduct) was “binds”. In the case of “TCTCCTTCTTGGTTCTCTTCTC (double strand) [110 bp ligated 22-mer, unmodified]”, where the note is “only nonspecific binding, variant of 110 bp ligated 22-mer, cis 1,2-d(GpG)”, the binding result is “no binding”. On to “TCTCCTTCTTGTGTCTCTTCTC (double strand) [110 bp ligated 22-mer, cis 1,3-d(GpTpG)]”, for which the binding result (cis-DDP 1,3-intrastrand d(GpTpG) adduct) is “no binding”. On to “TCTCCTTCTTGTGTCTCTTCTC (double strand) [110 bp ligated 22-mer, trans 1,3-d(GpTpG)]”, for which, where the note is “trans-DDP 1,3-intrastrand d(GpTpG) adduct”, the binding result was “no binding”.
